Experimental data as given in the supplement of paper PMC7661543.
The effect of the compound repeats well; differences between the knockouts mostly do not.

Tested on: SKBR3
Test: relative cell number vs DMSO control (72 h) (% of DMSO); higher = less growth inhibition (more cells)
Experimental: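 QMAP-Seq: a pool of 5 breast cancer cell lines (ZR-75-1, SKBR3, HCC-38, MDA-MB-231, BT-20), each carrying 12 doxycycline-inducible Cas9 sgRNA perturbations (11 knockouts plus non-targeting sgNT), was treated with compounds for 72 h at four 10-fold doses (10 nM-10 uM or 1 nM-1 uM range). Barcodes were amplified and sequenced, and cell number was interpolated from 293T spike-in standard curves. The result is expressed as % of the median of DMSO wells. Two biological replicates.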

Cc1[nH]c(/C=C2\C(=O)Nc3ccc(S(=O)(=O)N(C)c4cccc(Cl)c4)cc32)c(C)c1C(=O)N1CCN(C)CC1
Settings	relative cell number
sgRNA knockout: sgATF3, 10 nM	126
sgRNA knockout: sgATF3, 100 nM	85
sgRNA knockout: sgATF3, 1000 nM	59.7
sgRNA knockout: sgATF3, 10000 nM	71.7
sgRNA knockout: sgATF4, 10 nM	90.4
sgRNA knockout: sgATF4, 100 nM	100
sgRNA knockout: sgATF4, 1000 nM	84.6
sgRNA knockout: sgATF4, 10000 nM	50.5
sgRNA knockout: sgATF6, 10 nM	87.6
sgRNA knockout: sgATF6, 100 nM	89.39
sgRNA knockout: sgATF6, 1000 nM	71
sgRNA knockout: sgATF6, 10000 nM	56.8
sgRNA knockout: sgATG7, 10 nM	80.4
sgRNA knockout: sgATG7, 100 nM	106
sgRNA knockout: sgATG7, 1000 nM	78.2
sgRNA knockout: sgATG7, 10000 nM	72.8
sgRNA knockout: sgERN1, 10 nM	109
sgRNA knockout: sgERN1, 100 nM	86.7
sgRNA knockout: sgERN1, 1000 nM	85.8
sgRNA knockout: sgERN1, 10000 nM	47
sgRNA knockout: sgHSF1, 10 nM	75.1
sgRNA knockout: sgHSF1, 100 nM	85.7
sgRNA knockout: sgHSF1, 1000 nM	71.3
sgRNA knockout: sgHSF1, 10000 nM	67.2
sgRNA knockout: sgHSF2, 10 nM	98
sgRNA knockout: sgHSF2, 100 nM	99.5
sgRNA knockout: sgHSF2, 1000 nM	73
sgRNA knockout: sgHSF2, 10000 nM	59.2
sgRNA knockout: sgKEAP1, 10 nM	95.5
sgRNA knockout: sgKEAP1, 100 nM	86.9
sgRNA knockout: sgKEAP1, 1000 nM	83.8
sgRNA knockout: sgKEAP1, 10000 nM	56.1
sgRNA knockout: sgNFE2L2, 10 nM	98.6
sgRNA knockout: sgNFE2L2, 100 nM	88.9
sgRNA knockout: sgNFE2L2, 1000 nM	77.4
sgRNA knockout: sgNFE2L2, 10000 nM	55.8
sgRNA knockout: sgSLC35F2, 10 nM	115
sgRNA knockout: sgSLC35F2, 100 nM	93.2
sgRNA knockout: sgSLC35F2, 1000 nM	73.3
sgRNA knockout: sgSLC35F2, 10000 nM	66.3
sgRNA knockout: sgXBP1, 10 nM	84.6
sgRNA knockout: sgXBP1, 100 nM	69.4
sgRNA knockout: sgXBP1, 1000 nM	80.1
sgRNA knockout: sgXBP1, 10000 nM	69.1

O=C(O)CCCc1ccc(N(CCCl)CCCl)cc1 [Chlorambucil]
Settings	relative cell number
sgRNA knockout: sgATF3, 10 nM	121
sgRNA knockout: sgATF3, 100 nM	96
sgRNA knockout: sgATF3, 1000 nM	122
sgRNA knockout: sgATF3, 10000 nM	67.5
sgRNA knockout: sgATF4, 10 nM	81
sgRNA knockout: sgATF4, 100 nM	85.5
sgRNA knockout: sgATF4, 1000 nM	88.9
sgRNA knockout: sgATF4, 10000 nM	75.9
sgRNA knockout: sgATF6, 10 nM	86.3
sgRNA knockout: sgATF6, 100 nM	89.8
sgRNA knockout: sgATF6, 1000 nM	102
sgRNA knockout: sgATF6, 10000 nM	61.9
sgRNA knockout: sgATG7, 10 nM	113
sgRNA knockout: sgATG7, 100 nM	92.8
sgRNA knockout: sgATG7, 1000 nM	85.1
sgRNA knockout: sgATG7, 10000 nM	62.1
sgRNA knockout: sgERN1, 10 nM	108
sgRNA knockout: sgERN1, 100 nM	95.6
sgRNA knockout: sgERN1, 1000 nM	98
sgRNA knockout: sgERN1, 10000 nM	86.5
sgRNA knockout: sgHSF1, 10 nM	81.3
sgRNA knockout: sgHSF1, 100 nM	83.4
sgRNA knockout: sgHSF1, 1000 nM	67.69
sgRNA knockout: sgHSF1, 10000 nM	65.1
sgRNA knockout: sgHSF2, 10 nM	101
sgRNA knockout: sgHSF2, 100 nM	70.3
sgRNA knockout: sgHSF2, 1000 nM	78.3
sgRNA knockout: sgHSF2, 10000 nM	76.5
sgRNA knockout: sgKEAP1, 10 nM	81.7
sgRNA knockout: sgKEAP1, 100 nM	87.07
sgRNA knockout: sgKEAP1, 1000 nM	82.2
sgRNA knockout: sgKEAP1, 10000 nM	64.1
sgRNA knockout: sgNFE2L2, 10 nM	87.5
sgRNA knockout: sgNFE2L2, 100 nM	94.5
sgRNA knockout: sgNFE2L2, 1000 nM	75.1
sgRNA knockout: sgNFE2L2, 10000 nM	77.7
sgRNA knockout: sgSLC35F2, 10 nM	90.5
sgRNA knockout: sgSLC35F2, 100 nM	79.4
sgRNA knockout: sgSLC35F2, 1000 nM	83.03
sgRNA knockout: sgSLC35F2, 10000 nM	61.6
sgRNA knockout: sgXBP1, 10 nM	95.3
sgRNA knockout: sgXBP1, 100 nM	89.7
sgRNA knockout: sgXBP1, 1000 nM	77.9
sgRNA knockout: sgXBP1, 10000 nM	72.6

CC(=O)Nc1nc(C)c(-c2ccc(Cl)c(S(=O)(=O)NCCO)c2)s1 [PIK93]
Settings	relative cell number
sgRNA knockout: sgATF3, 10 nM	116
sgRNA knockout: sgATF3, 100 nM	109
sgRNA knockout: sgATF3, 1000 nM	99.42
sgRNA knockout: sgATF3, 10000 nM	45.1
sgRNA knockout: sgATF4, 10 nM	116
sgRNA knockout: sgATF4, 100 nM	101
sgRNA knockout: sgATF4, 1000 nM	85.3
sgRNA knockout: sgATF4, 10000 nM	46.7
sgRNA knockout: sgATF6, 10 nM	102
sgRNA knockout: sgATF6, 100 nM	96
sgRNA knockout: sgATF6, 1000 nM	70.2
sgRNA knockout: sgATF6, 10000 nM	47.9
sgRNA knockout: sgATG7, 10 nM	115.7
sgRNA knockout: sgATG7, 100 nM	84.3
sgRNA knockout: sgATG7, 1000 nM	94.6
sgRNA knockout: sgATG7, 10000 nM	55.9
sgRNA knockout: sgERN1, 10 nM	135
sgRNA knockout: sgERN1, 100 nM	122
sgRNA knockout: sgERN1, 1000 nM	83.5
sgRNA knockout: sgERN1, 10000 nM	51.67
sgRNA knockout: sgHSF1, 10 nM	121
sgRNA knockout: sgHSF1, 100 nM	95.8
sgRNA knockout: sgHSF1, 1000 nM	91.5
sgRNA knockout: sgHSF1, 10000 nM	43.7
sgRNA knockout: sgHSF2, 10 nM	107
sgRNA knockout: sgHSF2, 100 nM	91.9
sgRNA knockout: sgHSF2, 1000 nM	84.82
sgRNA knockout: sgHSF2, 10000 nM	53.8
sgRNA knockout: sgKEAP1, 10 nM	106
sgRNA knockout: sgKEAP1, 100 nM	104
sgRNA knockout: sgKEAP1, 1000 nM	73
sgRNA knockout: sgKEAP1, 10000 nM	42.74
sgRNA knockout: sgNFE2L2, 10 nM	105
sgRNA knockout: sgNFE2L2, 100 nM	85.7
sgRNA knockout: sgNFE2L2, 1000 nM	72.7
sgRNA knockout: sgNFE2L2, 10000 nM	45
sgRNA knockout: sgSLC35F2, 10 nM	110
sgRNA knockout: sgSLC35F2, 100 nM	109
sgRNA knockout: sgSLC35F2, 1000 nM	68.2
sgRNA knockout: sgSLC35F2, 10000 nM	57.6
sgRNA knockout: sgXBP1, 10 nM	83.9
sgRNA knockout: sgXBP1, 100 nM	96.7
sgRNA knockout: sgXBP1, 1000 nM	66.8
sgRNA knockout: sgXBP1, 10000 nM	50.5
